Experimental data: paper PMC7538601, “Low-Zone IL-2 Signaling: Fusion Proteins Containing Linked CD25 and IL-2 Domains Sustain Tolerogenic Vaccination in vivo and Promote Dominance of FOXP3^+ Tregs in vitro” (Frontiers in Immunology, 2020)
No constants are given. Whether binding was seen depends on the method and setting. Some binding calls cover weakened binding; strength is not graded here. Tags and fused reporters may be left off the sequences shown.

T1: Full length murine CD25 on HEK cells (mouse, UniProt P01590 22-268)
T1 sequence (looked up): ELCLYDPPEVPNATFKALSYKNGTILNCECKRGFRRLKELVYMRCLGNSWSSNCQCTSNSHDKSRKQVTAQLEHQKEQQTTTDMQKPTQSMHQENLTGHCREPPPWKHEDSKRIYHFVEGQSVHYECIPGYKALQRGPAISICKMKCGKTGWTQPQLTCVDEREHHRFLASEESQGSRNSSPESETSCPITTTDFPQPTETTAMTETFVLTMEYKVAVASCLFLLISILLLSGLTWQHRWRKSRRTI

B1: Recombinant murine IL-2 (ligand, UniProt P04351 21-169)
chain: APTSSSTSSSTAEAQQQQQQQQQQQQHLEQLLMDLQELLSRMENYRNLKLPRMLTFKFYLPKQATELKDLQCLEDELGPLRHVLDLTQSKSFQLEDAENFISNIRVTVVKLKGSDNTFECQFDDESATVVDFLRRWIAFCQSIISTSPQ
B2: CD25-IL2 fusion protein (other, mouse)
chain: ELCLYDPPEVPNATFKALSYKNGTILNCECKRGFRRLKELVYMRCLGNSWSSNCQCTSNSHDKSRKQVTAQLEHQKEQQTTTDMQKPTQSMHQENLTGHCREPPPWKHEDSKRIYHFVEGQSVHYECIPGYKALQRGPAISICKMKCGKTGWTQPQLTCVDEREHHRFLASEESQGSRNSSPESETSCPITTTDFPQPTETTAMTETFVLTMEYKGGGGSTRGGGGSTGGGGSGGGGSSAPTSSSTSSSTAEAQQQQQQQQQQQQHLEQLLMDLQELLSRMENYRNLKLPRMLTFKFYLPKQATELKDLQCLEDELGPLRHVLDLTQSKSFQLEDAENFISNIRVTVVKLKGSDNTFECQFDDESATVVDFLRRWIAFCQSIISTSPQ
notes: signal peptide in the construct; murine soluble CD25 (IL-2 receptor alpha chain), aa1-236 of NP_032393; 23-aa flexible linker; murine IL-2, aa20-169 of NP_032392; Glycosylated; about 70 kDa on SDS-PAGE, reducing and non-reducing; By SEC it runs as higher order multimers; also called CD25-IL2 FP; FP; source: HEK293F, stably transfected (pCMV), expression supernatant, purified (Ni-NTA); not shown: …
B3: IL2-CD25 fusion protein (other, mouse)
chain: APTSSSTSSSTAEAQQQQQQQQQQQQHLEQLLMDLQELLSRMENYRNLKLPRMLTFKFYLPKQATELKDLQCLEDELGPLRHVLDLTQSKSFQLEDAENFISNIRVTVVKLKGSDNTFECQFDDESATVVDFLRRWIAFCQSIISTSPQGGGGSTRGGGGSTGGGGSGGGGSELCLYDPPEVPNATFKALSYKNGTILNCECKRGFRRLKELVYMRCLGNSWSSNCQCTSNSHDKSRKQVTAQLEHQKEQQTTTDMQKPTQSMHQENLTGHCREPPPWKHEDSKRIYHFVEGQSVHYECIPGYKALQRGPAISICKMKCGKTGWTQPQLTCVDEREHHRFLASEESQGSRNSSPESETSCPITTTDFPQPTETTAMTETFVLTMEYK
notes: signal peptide in the construct; murine IL-2, aa1-169 of NP_032392; 23-aa flexible linker; murine soluble CD25 (IL-2 receptor alpha chain), aa22-236 of NP_032393; Glycosylated; about 70 kDa on SDS-PAGE, reducing and non-reducing; By SEC it runs as higher order multimers; also called IL2-CD25 FP; FP; source: HEK293F, stably transfected (pIRES AcGFP1), expression supernatant, purified (Ni-NTA); not …

The binders below were run against T1, Full length murine CD25 on HEK cells (assay: flow cytometry on cells; HEK cells expressing transmembrane full-length mouse CD25 incubated with 1 uM or designated concentrations of His-tagged proteins, extensively washed, then APC-labeled anti-Histag mAb; percent APC+ cells and MFI; only the binder purified).

Row | Binder | binding
1 | B1 | binds
2 | B2 | binds
3 | B3 | binds
